The values that follow are results of earlier work, collected in patent publication US9415193B2, “Eluting medical devices” (W. L. Gore & Associates, Inc., priority 2011, dated 2016).

For the compound `CC(=O)O[C@H]1C(=O)[C@@]2(C)[C@H]([C@H](OC(=O)c3ccccc3)[C@]3(O)C[C@H](OC(=O)[C@H](O)[C@@H](NC(=O)c4ccccc4)c4ccccc4)C(C)=C1C3(C)C)[C@]1(OC(C)=O)CO[C@@H]1C[C@@H]2O` [paclitaxel], the “solubilized concentration in solution” value (hydroxypropyl-β-cyclodextrin at 60% (w/v in water)) is on record as “approximately 4 mM”. Also, the “solubility limit in water” value (neat DI-water, room temperature) is listed as “about 0.4 μM”.
